About 780 (0.22%) of roughly 360,000 compounds were called active. This list was built around the results that the source calls inconclusive (neither active nor inactive); the mix of calls is not that of the screen. Rule as the data show it: active = inhibition above about 35% (passing the limit was not always enough); inconclusive = no clear call, values can overlap the other calls.
Test system: Botulinum neurotoxin type F light chain protease (Clostridium botulinum)
Assay: BoNT/F light chain protease inhibitors, primary screen, biochemical, flow cytometry, MLPCN library (AID 588497); also: plate controls were buffer without enzyme for full effect and enzyme alone for no effect
Conditions: Multiplex microsphere protease cleavage assay, at 10 µM, hits give high values

| SMILES | inhibition |
| --- | --- |
| CC1=NN(C(N)=S)C(=O)C1N=Nc1ccc(Br)cc1 (stereo not drawn) | inconclusive: -25.6% |
| CC(C)(C)CN1CCN(Cc2cccnc2)CC1CCO (stereo not drawn) | inconclusive: -10.2% |
| COc1cccc(-c2csc(N3CCN(C(=S)Nc4ccccc4OC)CC3)n2)c1 | inactive: -7.2% |
| OCCCNc1ncnc2c1[nH]c1ccccc12 | inconclusive: -11.6% |
| COc1ccc(NC(=O)CN(c2cccc(C(F)(F)F)c2)S(C)(=O)=O)cc1OC | inactive: 9.3% |
| Cc1noc(C)c1CSCC(=O)N(C)CC(=O)Nc1ccccc1C(F)(F)F | inactive: 4.3% |
| O=C(Cn1nnc(-c2ccccc2F)n1)N1CCCCC1 | inconclusive: 17.7% |
| O=C(CSc1ncccn1)N1CCC(Cc2ccccc2)CC1 | inactive: -6.3% |
| COC(=O)CSc1nc2ccccc2c(=O)n1Cc1ccccc1 | inconclusive: -9.7% |
| CCOC(=O)C1CCN(C(=O)c2cc3cc4cc(OC)ccc4nc3o2)CC1 | inactive: 4.2% |
| CCc1cc(=O)oc2cc(OCC(=O)NCc3ccccn3)ccc12 | inactive: 0% |
| N=c1c(C(=O)NCc2ccco2)cc2c(=O)n3ccccc3nc2n1Cc1ccccc1 | inactive: -5.2% |
| Fc1ccccc1N1CCN(CCCc2ccccc2)CC1 | inconclusive: 22.8% |
| COc1ccc(C2NC(c3ccc(OC)cc3)C(C)C(=O)C2C)cc1 (stereo not drawn) | inconclusive: -52.8% |
| CCOc1cc(N(CC)CC)ccc1/C=C(/C#N)c1nc2ccccc2[nH]1 | active: 41.5% |
| N/C(=N\OC(=O)c1cccc2ccccc12)c1ccccn1 | inconclusive: 6.4% |
| COCCCNC(=O)/C=C/c1cccc(Cl)c1 | inactive: -1.9% |
| CC(=O)NN1CCc2cc3ccc(C)cc3nc21 | inactive: -13.9% |
| O=[N+]([O-])c1ccc(/C=N/N2CCN(Cc3ccccc3)CC2)cc1 | inconclusive: 1.4% |
| S=c1nc(-c2ccccc2)[nH]c2ccc(Br)cc12 | inconclusive: 13.8% |
| CCOC(=O)c1cc(C#N)c(N2CCN(C(=O)c3ccccc3)CC2)nc1C(F)(F)F | inconclusive: 11.9% |
| NCCNC(=O)c1c(NC(=O)c2ccccc2)sc2c1CCCC2 | inconclusive: -10.8% |
| O=C(O)c1cc(S(=O)(=O)O)cc(Nc2c3ccccc3nc3ccccc23)c1O | inconclusive: 26.4% |
| CC1=NNC(=O)C1Cc1c(Cl)cccc1Cl (stereo not drawn) | inconclusive: -34.9% |

| SMILES | inhibition |
| --- | --- |
| O=C(CN1CCCCCC1)Nc1ccc(Br)cc1[N+](=O)[O-] | inconclusive: 29.4% |
| COc1ccc(NC(=O)C2CCN(c3cc(-c4ccccc4)nc4ncnn34)CC2)cc1OC | inactive: -1% |
| CCOC(=O)c1ccc(NC(=O)c2cc(C)nn2-c2ccccc2)cc1 | inconclusive: -0.6% |
| COc1ccc(C(=O)c2ccc([N+](=O)[O-])cc2)cc1S(=O)(=O)N1CCC(C(=O)O)CC1 | inconclusive: 4.4% |
| N#Cc1c(-c2ccccc2)cc(-c2ccccc2)nc1SCC(=O)NCC(=O)O | inactive: -9.3% |
| COc1cc(C)nc(Oc2ccc(OCCOc3ccc(C)cc3)nn2)n1 | inactive: -11.7% |
| NC(=S)N/N=C1\CCSc2ccc(Cl)cc21 | inconclusive: -84% |
| CCOC(=O)C1=C(N)Oc2cc(O)ccc2C1c1ccccc1 (stereo not drawn) | inconclusive: 35.1% |
| CCn1cc(S(=O)(=O)NC(C)c2cc(OC)ccc2OC)cn1 (stereo not drawn) | inactive: -8.4% |
| O=C(CBr)c1ccc([N+](=O)[O-])c(CS(=O)(=O)c2ccc(Cl)cc2)c1 | inconclusive: 7.5% |
| O=C(NCCN1CCCCC1)Nc1ccc(Br)cc1 | inactive: 3.9% |
| Cc1ccc(C)c(S(=O)(=O)NCc2ccc(C(=O)NCc3ccco3)cc2)c1 | inconclusive: -1.8% |
| COc1ccc(-c2cc(C(=O)NCCCN3CCOCC3)c3ccccc3n2)cc1OC | inconclusive: 2.1% |
| C=CCNC(=O)c1ccc(N(Cc2ccc(Cl)cc2)S(C)(=O)=O)cc1 | active: 38.7% |
| COc1cc(-c2nc(-c3ccccc3)c(-c3cccs3)[nH]2)cc(OC)c1O | inactive: -2.1% |
| COc1ccc(CNC(=O)COC(=O)c2ccc(C)c(S(=O)(=O)N3CCOCC3)c2)cc1OC | inconclusive: 9.8% |
| O=C(Nc1cnn(Cc2ccccc2)c1)NC12CC3CC(CC(C3)C1)C2 | inconclusive: -54.9% |
| CCOC(=O)CN1C(=O)N(CC(=O)OCC)C(c2ccccc2)(c2ccccc2)C1=O | inconclusive: -44.3% |
| COc1cccc(NC(=O)CSc2nnc(COc3ccc4c(c3)CCCC4)o2)c1 | inconclusive: -4.1% |
| CCC1(CC)NC(=O)N(CC(=O)N2CCN(c3ccccc3F)CC2)C1=O | inactive: 1.6% |
| O=C(CN1CCN(Cc2ccccc2)CC1)NC(=O)NCc1ccco1 | inactive: -2.3% |
| O=C(COC(=O)/C=C/c1cnc2ccccc2n1)NCC(F)(F)F | inconclusive: -9.9% |
| C=CCn1c(=O)c(C(=O)Nc2cc(C)ccn2)c(O)c2ccccc21 | inconclusive: 18% |
| S=C(NCCC1=CCCCC1)Nc1ccc(Cl)cc1 | inactive: 9.9% |

| SMILES | inhibition |
| --- | --- |
| COc1ccc(NC(=O)CN2C(=O)C(C)Oc3ccccc32)cc1OC (stereo not drawn) | inconclusive: -26.8% |
| COc1cc(C2C3C(=O)N(Cc4ccccc4)C(=O)C3ON2c2ccccc2)cc(OC)c1O (stereo not drawn) | inconclusive: 21.9% |
| Cc1cccc(NC(=S)NCc2ccccc2Cl)c1C | active: 37.1% |
| CC1CCC2(CC1)NC(=O)N(NC(=O)c1cccs1)C2=O (stereo not drawn) | inactive: -6.3% |
| Cc1ccc(OCCCn2ccnc2)c(Br)c1 | inconclusive: -10.7% |
| Cc1ccc(-n2nnnc2SCC(=O)c2c(N)n(C3CC3)c(=O)[nH]c2=O)cc1C | inactive: 11.6% |
| CCOc1ccc(-c2c(C#N)c(N)nc3c2c(=O)n(C)c(=O)n3C)cc1OC | inconclusive: -21.8% |
| Cc1nc(SCc2c(Cl)cccc2Cl)nc(OC(=O)N(C)C)c1C | inconclusive: -31.5% |
| Cc1cc(C)c(C#N)c(SCC(=O)c2ccccc2)n1 | inactive: -4.1% |
| O=C1CSC(c2ccccc2)N1Cc1ccccc1 (stereo not drawn) | inconclusive: -209% |
| COc1ccc(CC(=O)Oc2ccc(F)cc2)cc1 | inconclusive: 4.4% |
| Cc1ccc(C)c(C(C)NC(=O)C2CCCO2)c1 (stereo not drawn) | inconclusive: 17.8% |
| O=C(COC(=O)c1ccccc1O)Nc1ccc(OC(F)F)cc1 | inactive: -14.5% |
| O=[N+]([O-])c1cncc([N+](=O)[O-])c1Nc1cccc(O)c1 | inconclusive: -8.1% |
| COc1ccccc1N=Nc1ccc(N)c(C)c1 | inactive: -30.7% |
| O=C(/C=C\c1ccco1)Nc1nc(-c2ccc3ccccc3c2)cs1 | inactive: -7% |
| CC(C)N(C(C)C)S(=O)(=O)c1ccc(NC(=O)c2cnccn2)cc1 | inconclusive: -38.4% |
| CCCCC[n+]1ccn(C2=C([O-])c3ccccc3C(=O)/C2=N\S(=O)(=O)c2ccc(Br)cc2)c1 | inconclusive: -15.4% |
| O=C(CSc1nnc(Cc2ccccc2)n1-c1ccccc1)NNC(=O)Cc1ccccc1 | inactive: 2.5% |
| Cc1nc(CS(=O)(=O)c2ccccn2)sc1C(=O)NNC(=O)c1c(F)cccc1Cl | inconclusive: -24.2% |
| CCC1(C)Cc2ccccc2-c2nc(SC)[nH]c(=O)c21 (stereo not drawn) | inconclusive: 21.6% |
| CCCCCCc1ccc(OC(=O)c2ccncc2)cc1 | inconclusive: -27.7% |
| CC(Sc1ccccc1)C(=O)NCCc1ccccc1 (stereo not drawn) | inconclusive: 10.9% |
| Cc1nc(C)n(C(=O)N(c2ccccc2)c2ccccc2)n1 | inconclusive: -2.2% |

| SMILES | inhibition |
| --- | --- |
| Cc1noc(NS(=O)(=O)c2ccc(NC(=O)CSc3nc4ccccc4[nH]3)cc2)c1C | inactive: -4.2% |
| CCCn1nc2cc(C(=O)NC3CCc4ccccc43)ccc2c1OCC (stereo not drawn) | inactive: -6.7% |
| COc1cc(CNCCCN2CCOCC2)cc(Br)c1OCC(=O)N1CCCCC1 | inactive: 12.9% |
| O=C(NNC(=O)c1c(F)cccc1F)c1ccccc1OC(F)(F)F | inconclusive: -3.3% |
| CCN(CC)C(=O)CSc1nnc2sc3ccccc3n12 | inactive: 0.4% |
| CCOc1ccccc1OCC(=O)Oc1ccc(C)c(C)c1 | inconclusive: -4.6% |
| CSc1nnc(C2CCNCC2)n1C | inconclusive: 22% |
| C/C(Cc1ccccc1)=N\NC(=O)CNC(=O)Cc1ccc(Cl)cc1 | inconclusive: 53.9% |
| N#Cc1c(F)cccc1NCCCn1ccnc1 | inconclusive: 18.4% |
| CCN(CC)CCCCCC(=O)Nc1ccccc1C(=O)Nc1ccccc1 | inconclusive: -8.9% |
| N#CC(C(=S)Nc1ccccc1)c1nc2ccccc2[nH]1 (stereo not drawn) | inconclusive: -0.3% |
| COC(=O)c1ccc(Cn2cc(/C=C\[N+](=O)[O-])c3ccccc32)o1 | inconclusive: 21.5% |
| COc1cc2c(cc1OC)C(c1cc(C)ccc1C)CC(=O)N2 (stereo not drawn) | inconclusive: 38.7% |
| c1ccc2nc(N3CCOCC3)c(N3CCOCC3)nc2c1 | inconclusive: -9.9% |
| Cc1cc(NC(=O)c2ccccc2Cl)no1 | inactive: -12.3% |
| Cc1cc(C)c(NC(=O)CNC(=O)Cc2ccc(S(=O)(=O)N3CCOCC3)s2)c(C)c1 | inactive: -8.7% |
| CNC(=O)COc1ccc(S(=O)(=O)N2CCCC2)cc1 | inconclusive: -39% |
| Cc1cc(SCC(=O)OCC(=O)N(CCC#N)c2ccccc2)nc2ccccc12 | inactive: 6% |
| C/C(Cn1nc([N+](=O)[O-])cc1C)=N\NC(=O)c1cccc(Br)c1 | inconclusive: -30.2% |
| CCCCC#Cc1cncc(C(=O)N/N=C/c2ccccc2)c1 | inconclusive: -119% |
| CCOc1ccc(-c2nn(-c3ccccc3)cc2/C=C2\SC(=S)N(C3CCS(=O)(=O)C3)C2=O)cc1 (stereo not drawn) | active: 42.9% |

Source: PubChem BioAssay AID588497 (NMMLSC, 2011)
